{
  "source": "PubChem BioAssay AID256",
  "about": "(DTP/NCI, 2004)",
  "test_system": "CD2F1 mice, L1210 leukemia ip, survival T/C",
  "test": "NCI In Vivo Anticancer Drug Screen. Data for tumor model L1210 Leukemia (intraperitoneal) in CD2F1 (CDF1) mice",
  "settings": "higher T/C = longer survival",
  "method": "The antitumor activity of compounds was measured in mice bearing transplantable tumors. Survival or tumor size were measured and the results are expressed as the measurement made in the treated group (T) divided by the measurement made in the vehicle treated control group (C). The tumor model used in this assay is L1210 Leukemia (intraperitoneal) in CD2F1 (CDF1) mice",
  "note": "The list does not hold the whole screen: it gathers tests that were run many times, whatever their T/C, doses with no T/C, and many T/C values between a quarter and a half above the control. Further doses and runs are listed elsewhere. T/C is the treated group as % of the vehicle group. Some entries give survivors of the animals treated and no T/C: the source files T/C as zero there, which appears to mark a toxic dose or a test without result, not a measured value. Some survivor counts are full or nearly so, which does not show that the dose was tolerated: survival well below the control is almost never listed, so the zero probably covers shortened survival too. Survivors were counted at the toxicity check, usually on the fifth day, unless a day is given; later deaths do not show. Schedules are NCI's codes, taken here to give the interval after Q, in days (D) or hours (H), and the number of doses after X. Where survival is the endpoint, this PubChem deposit counts one and a half times the control or more as active, and values a quarter to a half above the control carry no call in these data; other NCI protocols may use other cut-offs. Some T/C values are followed by the survivors on the day toxicity was checked, most often the fifth; without a count, all were alive then.",
  "data": [
    {"smiles": "CC1(C)N=C(N)N=C(N)N1c1ccc(CCCCc2ccc(S(=O)(=O)F)cc2Cl)c(Cl)c1", "values": [
      {"measurement": "T/C", "setting": "T/C endpoint: mean survival time, dose: 12.0 mg/kg/injection, schedule: Q01DX009 (ip), vehicle: Klucel (hydroxypropylcellulose) (HPC)", "value": "135 % of control"},
      {"measurement": "T/C", "setting": "T/C endpoint: mean survival time, dose: 16.5 mg/kg/injection, schedule: Q01DX009 (ip), vehicle: saline with Tween-80", "value": "133 % of control"},
      {"measurement": "T/C", "setting": "T/C endpoint: mean survival time, dose: 16.5 mg/kg/injection, schedule: Q04DX003 (ip), vehicle: acetone", "value": "133 % of control"},
      {"measurement": "T/C", "setting": "T/C endpoint: mean survival time, dose: 20.0 mg/kg/injection, schedule: Q01DX009 (ip), vehicle: Klucel (hydroxypropylcellulose) (HPC)", "value": "135 % of control"},
      {"measurement": "T/C", "setting": "T/C endpoint: mean survival time, dose: 24.75 mg/kg/injection, schedule: Q01DX009 (ip), vehicle: saline with Tween-80", "value": "146 % of control"},
      {"measurement": "T/C", "setting": "T/C endpoint: mean survival time, dose: 24.75 mg/kg/injection, schedule: Q04DX003 (ip), vehicle: acetone", "value": "132 % of control"},
      {"measurement": "T/C", "setting": "T/C endpoint: mean survival time, dose: 25.0 mg/kg/injection, schedule: Q01DX009 (ip), vehicle: saline with Tween-80", "value": "132 % of control"},
      {"measurement": "T/C", "setting": "T/C endpoint: mean survival time, dose: 33.3 mg/kg/injection, schedule: Q01DX009 (ip), vehicle: Klucel (hydroxypropylcellulose) (HPC)", "value": "125 % of control"},
      {"measurement": "T/C", "setting": "T/C endpoint: mean survival time, dose: 48.0 mg/kg/injection, schedule: Q01DX009 (ip), vehicle: saline with Tween-80", "value": "139 % of control"},
      {"measurement": "T/C", "setting": "T/C endpoint: mean survival time, dose: 50.0 mg/kg/injection, schedule: Q01DX009 (ip), vehicle: saline with Tween-80", "value": "132 % of control"},
      {"measurement": "T/C", "setting": "T/C endpoint: mean survival time, dose: 50.0 mg/kg/injection, schedule: Q04DX003 (ip), vehicle: saline", "value": "133 % of control"},
      {"measurement": "T/C", "setting": "T/C endpoint: mean survival time, dose: 60.0 mg/kg/injection, schedule: Q01DX009 (ip), vehicle: saline with Tween-80", "value": "145 % of control"},
      {"measurement": "survivor count", "setting": "T/C endpoint: mean survival time, dose: 75.0 mg/kg/injection, schedule: Q04DX003 (ip), vehicle: saline", "value": "3 of 6"},
      {"measurement": "T/C", "setting": "T/C endpoint: mean survival time, dose: 89.0 mg/kg/injection, schedule: Q04DX003 (ip), vehicle: saline with Tween-80", "value": "136 % of control"},
      {"measurement": "survivor count", "setting": "T/C endpoint: mean survival time, dose: 150.0 mg/kg/injection, schedule: Q01DX009 (ip), vehicle: saline with Tween-80", "value": "6 of 6"},
      {"measurement": "T/C", "setting": "T/C endpoint: mean survival time, dose: 200.0 mg/kg/injection, schedule: Q04DX003 (ip), vehicle: saline with Tween-80", "value": "137 % of control"},
      {"measurement": "survivor count", "setting": "T/C endpoint: mean survival time, dose: 300.0 mg/kg/injection, schedule: Q01DX009 (ip), vehicle: saline with Tween-80", "value": "3 of 6"},
      {"measurement": "survivor count", "setting": "T/C endpoint: mean survival time, dose: 450.0 mg/kg/injection, schedule: Q04DX003 (ip), vehicle: saline with Tween-80", "value": "6 of 6"},
      {"measurement": "survivor count", "setting": "T/C endpoint: mean survival time, dose: 600.0 mg/kg/injection, schedule: Q01DX009 (ip), vehicle: saline with Tween-80", "value": "0 of 6"},
      {"measurement": "T/C", "setting": "T/C endpoint: median survival time, dose: 18.0 mg/kg/injection, schedule: Q01DX009 (ip), vehicle: saline with Tween-80, evaluated on day 30", "value": "134 % of control [9 of 10 alive]"},
      {"measurement": "T/C", "setting": "T/C endpoint: median survival time, dose: 18.0 mg/kg/injection, schedule: Q01DX009 (ip), vehicle: saline with Tween-80, evaluated on day 45", "value": "134 % of control"},
      {"measurement": "T/C", "setting": "T/C endpoint: median survival time, dose: 27.0 mg/kg/injection, schedule: Q01DX009 (ip), vehicle: saline with Tween-80", "value": "139 % of control"},
      {"measurement": "T/C", "setting": "T/C endpoint: median survival time, dose: 59.0 mg/kg/injection, schedule: Q04DX003 (ip), vehicle: saline with Tween-80", "value": "134 % of control"},
      {"measurement": "T/C", "setting": "T/C endpoint: median survival time, dose: 89.0 mg/kg/injection, schedule: Q04DX003 (ip), vehicle: saline with Tween-80", "value": "128 % of control"},
      {"measurement": "T/C", "setting": "T/C endpoint: median survival time, dose: 90.0 mg/kg/injection, schedule: Q01DX009 (ip), vehicle: saline with Tween-80", "value": "131 % of control"},
      {"measurement": "T/C", "setting": "T/C endpoint: median survival time, dose: 134.0 mg/kg/injection, schedule: Q04DX003 (ip), vehicle: saline with Tween-80", "value": "139 % of control"}
    ]},
    {"smiles": "CCCCCNc1ncnc2c(C)[nH]nc12", "values": [
      {"measurement": "survivor count", "setting": "T/C endpoint: median survival time, dose: 400.0 mg/kg/injection, schedule: Q01DX009 (ip), vehicle: Klucel (hydroxypropylcellulose) (HPC)", "value": "4 of 6"}
    ]},
    {"smiles": "CCCCCCCCCCCCCCCCOc1ccccc1/C=N/O", "values": [
      {"measurement": "survivor count", "setting": "T/C endpoint: mean survival time, dose: 400.0 mg/kg/injection, schedule: Q01DX009 (ip), vehicle: Klucel (hydroxypropylcellulose) (HPC)", "value": "6 of 6"}
    ]},
    {"smiles": "COc1cccc2c1C(=O)c1c(O)c3c(c(O)c1C2=O)C[C@@](O)(C(=O)CSc1ccccc1)C[C@@H]3OC1CC(N)C(O)C(C)O1", "note": "(stereo partly drawn)", "values": [
      {"measurement": "survivor count", "setting": "T/C endpoint: mean survival time, dose: 25.0 mg/kg/injection, schedule: Q01DX009 (ip), vehicle: water", "value": "1 of 6"}
    ]},
    {"smiles": "CC1(C)N=C(N)N=C(N)N1c1ccc(CCCCc2ccc(S(=O)(=O)F)cc2)c(Cl)c1", "values": [
      {"measurement": "T/C", "setting": "T/C endpoint: mean survival time, dose: 7.5 mg/kg/injection, schedule: Q01DX009 (ip), vehicle: saline", "value": "128 % of control"},
      {"measurement": "T/C", "setting": "T/C endpoint: mean survival time, dose: 15.0 mg/kg/injection, schedule: Q01DX009 (ip), vehicle: saline", "value": "128 % of control"},
      {"measurement": "T/C", "setting": "T/C endpoint: mean survival time, dose: 30.0 mg/kg/injection, schedule: Q01DX009 (ip), vehicle: saline with Tween-80", "value": "128 % of control"},
      {"measurement": "T/C", "setting": "T/C endpoint: mean survival time, dose: 30.0 mg/kg/injection, schedule: Q01DX009 (ip), vehicle: saline", "value": "131 % of control"}
    ]}
  ]
}
